The list shows a part of the results. Residues, ends and D or L forms follow the SMILES beside them. *: point of attachment. Cbz = O=C(OCc1ccccc1)*
How the values were obtained:
Assay in all cases: log2 fold change, soluble protein after heating vs DMSO (PISA); higher = thermal stabilisation; K562 cells, 10 uM, 30 min; active = over 0.2 and 3.5 SD of the protein, either way, in both replicates (recomputed)
[1] = compound: C1COCCN1CCN2C3=CC=CC=C3N=C2NC(=O)C4=CC(=CC=C4)[N+](=O)[O-] [IRAK-1-4 Inhibitor I]
Outline: (§1)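 For each measurement, 10 μM compound was applied for 30 min to K562 cells at 2×10^6 cells/mL. Aliquots were heated for 3 min across 48°C-58°C, pooled, and extracted in PBS with 0.5% NP-40 at 4°C; the supernatant after 21,000xg for 90 min was soluble protein. This was quantified by TMTpro 16plex LC-MS/MS with channel sums equalised, and thermal stability was reported relative to control samples from duplicates, on a log2 fold-change scale.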

Amino acid sequences for entries named in this document (tags omitted). A change or cut given only in a name is not applied to a line headed by its entry.
UniProt P36776: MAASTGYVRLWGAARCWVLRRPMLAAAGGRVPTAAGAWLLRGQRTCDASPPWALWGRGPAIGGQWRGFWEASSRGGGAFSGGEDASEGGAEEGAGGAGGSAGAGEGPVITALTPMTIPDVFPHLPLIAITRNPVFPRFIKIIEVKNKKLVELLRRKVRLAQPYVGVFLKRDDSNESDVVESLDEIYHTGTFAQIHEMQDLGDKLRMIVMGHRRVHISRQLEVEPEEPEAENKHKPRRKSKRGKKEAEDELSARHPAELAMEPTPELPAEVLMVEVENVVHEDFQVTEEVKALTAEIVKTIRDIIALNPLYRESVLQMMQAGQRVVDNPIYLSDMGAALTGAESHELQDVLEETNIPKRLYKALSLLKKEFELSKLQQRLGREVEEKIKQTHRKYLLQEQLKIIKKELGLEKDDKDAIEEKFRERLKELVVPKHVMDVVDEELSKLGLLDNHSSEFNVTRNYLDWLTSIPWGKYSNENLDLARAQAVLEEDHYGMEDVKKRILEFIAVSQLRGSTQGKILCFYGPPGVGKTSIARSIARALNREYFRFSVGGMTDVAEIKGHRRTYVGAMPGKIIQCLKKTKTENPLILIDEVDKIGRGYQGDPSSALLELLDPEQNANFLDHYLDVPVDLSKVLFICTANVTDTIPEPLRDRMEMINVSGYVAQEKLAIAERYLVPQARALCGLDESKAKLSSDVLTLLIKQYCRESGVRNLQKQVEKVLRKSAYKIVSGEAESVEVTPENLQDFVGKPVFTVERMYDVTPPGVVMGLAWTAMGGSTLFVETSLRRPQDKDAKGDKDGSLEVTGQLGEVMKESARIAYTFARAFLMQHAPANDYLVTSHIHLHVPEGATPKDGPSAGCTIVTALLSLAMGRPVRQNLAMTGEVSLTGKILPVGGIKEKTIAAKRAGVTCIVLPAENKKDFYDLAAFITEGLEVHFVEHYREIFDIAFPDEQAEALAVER
UniProt O94898: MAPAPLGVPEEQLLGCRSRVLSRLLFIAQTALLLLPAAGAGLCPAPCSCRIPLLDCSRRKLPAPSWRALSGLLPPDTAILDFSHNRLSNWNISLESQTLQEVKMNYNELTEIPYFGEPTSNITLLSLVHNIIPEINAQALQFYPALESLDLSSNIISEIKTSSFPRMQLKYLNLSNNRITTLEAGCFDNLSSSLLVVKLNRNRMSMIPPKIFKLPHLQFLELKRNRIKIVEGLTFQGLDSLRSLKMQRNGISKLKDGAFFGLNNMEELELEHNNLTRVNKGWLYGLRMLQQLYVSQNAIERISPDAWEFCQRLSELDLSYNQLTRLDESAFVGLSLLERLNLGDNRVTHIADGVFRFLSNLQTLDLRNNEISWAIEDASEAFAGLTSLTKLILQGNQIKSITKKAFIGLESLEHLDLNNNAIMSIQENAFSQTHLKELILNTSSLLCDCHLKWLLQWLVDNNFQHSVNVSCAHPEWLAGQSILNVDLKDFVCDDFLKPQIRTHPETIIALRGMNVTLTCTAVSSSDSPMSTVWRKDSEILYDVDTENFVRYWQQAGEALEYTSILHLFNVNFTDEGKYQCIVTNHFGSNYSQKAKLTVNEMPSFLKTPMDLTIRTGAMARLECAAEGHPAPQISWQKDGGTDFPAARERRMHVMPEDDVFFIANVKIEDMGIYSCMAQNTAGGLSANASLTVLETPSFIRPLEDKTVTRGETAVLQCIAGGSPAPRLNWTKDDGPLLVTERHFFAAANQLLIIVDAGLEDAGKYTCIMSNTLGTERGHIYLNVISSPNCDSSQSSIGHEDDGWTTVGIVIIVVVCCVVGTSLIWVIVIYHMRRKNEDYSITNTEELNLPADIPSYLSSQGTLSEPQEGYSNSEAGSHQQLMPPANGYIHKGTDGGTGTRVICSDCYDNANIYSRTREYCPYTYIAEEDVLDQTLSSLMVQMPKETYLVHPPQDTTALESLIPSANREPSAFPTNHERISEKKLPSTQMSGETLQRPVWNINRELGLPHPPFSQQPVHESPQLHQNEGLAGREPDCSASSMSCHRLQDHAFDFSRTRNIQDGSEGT
UniProt P07195, whole entry, looked up: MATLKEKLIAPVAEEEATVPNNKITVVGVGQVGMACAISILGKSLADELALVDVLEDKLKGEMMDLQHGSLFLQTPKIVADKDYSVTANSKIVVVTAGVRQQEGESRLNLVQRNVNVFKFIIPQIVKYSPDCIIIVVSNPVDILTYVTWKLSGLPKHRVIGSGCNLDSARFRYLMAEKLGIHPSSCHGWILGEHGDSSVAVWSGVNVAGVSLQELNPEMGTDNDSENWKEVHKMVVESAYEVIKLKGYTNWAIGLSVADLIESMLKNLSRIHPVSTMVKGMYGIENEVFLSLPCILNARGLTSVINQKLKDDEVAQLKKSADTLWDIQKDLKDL
UniProt P83111: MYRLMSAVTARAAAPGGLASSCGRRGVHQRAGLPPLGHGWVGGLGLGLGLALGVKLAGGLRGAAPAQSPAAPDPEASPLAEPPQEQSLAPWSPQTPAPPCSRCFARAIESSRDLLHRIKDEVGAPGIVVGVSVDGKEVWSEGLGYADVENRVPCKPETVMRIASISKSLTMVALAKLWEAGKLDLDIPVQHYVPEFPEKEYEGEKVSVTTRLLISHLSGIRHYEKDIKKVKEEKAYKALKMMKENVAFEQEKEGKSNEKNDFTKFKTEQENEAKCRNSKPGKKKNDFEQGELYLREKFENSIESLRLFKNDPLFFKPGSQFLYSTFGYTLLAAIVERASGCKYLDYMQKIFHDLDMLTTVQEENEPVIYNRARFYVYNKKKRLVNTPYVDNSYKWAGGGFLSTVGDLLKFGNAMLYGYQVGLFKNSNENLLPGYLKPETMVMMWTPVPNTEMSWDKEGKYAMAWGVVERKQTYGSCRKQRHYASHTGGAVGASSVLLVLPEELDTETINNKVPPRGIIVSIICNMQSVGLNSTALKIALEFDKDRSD
UniProt P13473: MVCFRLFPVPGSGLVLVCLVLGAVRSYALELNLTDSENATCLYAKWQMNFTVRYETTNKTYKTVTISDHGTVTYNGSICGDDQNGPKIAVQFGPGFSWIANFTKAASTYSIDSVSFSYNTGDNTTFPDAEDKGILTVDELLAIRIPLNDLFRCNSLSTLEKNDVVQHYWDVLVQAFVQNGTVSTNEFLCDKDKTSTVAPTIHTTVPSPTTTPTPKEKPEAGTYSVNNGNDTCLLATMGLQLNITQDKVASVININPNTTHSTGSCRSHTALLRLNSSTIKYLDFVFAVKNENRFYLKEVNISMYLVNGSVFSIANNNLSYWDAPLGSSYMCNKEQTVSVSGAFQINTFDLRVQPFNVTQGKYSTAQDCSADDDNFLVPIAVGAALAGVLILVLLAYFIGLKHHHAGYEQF
UniProt Q12907: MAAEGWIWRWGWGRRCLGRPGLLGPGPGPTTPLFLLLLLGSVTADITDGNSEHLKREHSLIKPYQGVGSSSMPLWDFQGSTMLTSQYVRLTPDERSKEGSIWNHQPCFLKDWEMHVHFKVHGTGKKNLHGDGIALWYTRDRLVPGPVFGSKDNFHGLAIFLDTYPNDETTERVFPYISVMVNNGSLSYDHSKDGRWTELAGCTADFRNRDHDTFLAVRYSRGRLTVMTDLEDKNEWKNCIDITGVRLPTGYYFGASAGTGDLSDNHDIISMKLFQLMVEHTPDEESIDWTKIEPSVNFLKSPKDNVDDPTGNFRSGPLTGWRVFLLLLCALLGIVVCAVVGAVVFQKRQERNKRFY
UniProt Q9NUP9: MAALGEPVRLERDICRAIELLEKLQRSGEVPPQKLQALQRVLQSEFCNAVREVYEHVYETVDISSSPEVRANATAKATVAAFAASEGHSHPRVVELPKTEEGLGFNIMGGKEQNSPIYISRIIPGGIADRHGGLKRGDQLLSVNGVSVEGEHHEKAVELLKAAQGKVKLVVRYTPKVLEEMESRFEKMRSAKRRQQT
UniProt Q53H82: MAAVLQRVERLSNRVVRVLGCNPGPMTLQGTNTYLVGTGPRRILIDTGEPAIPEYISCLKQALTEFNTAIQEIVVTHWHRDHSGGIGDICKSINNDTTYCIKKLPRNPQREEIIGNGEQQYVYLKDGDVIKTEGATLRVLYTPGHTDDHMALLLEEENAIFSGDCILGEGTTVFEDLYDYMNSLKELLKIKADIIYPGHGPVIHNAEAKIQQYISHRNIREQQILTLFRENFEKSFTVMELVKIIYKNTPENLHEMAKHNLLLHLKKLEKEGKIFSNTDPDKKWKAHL
UniProt Q9Y2U8: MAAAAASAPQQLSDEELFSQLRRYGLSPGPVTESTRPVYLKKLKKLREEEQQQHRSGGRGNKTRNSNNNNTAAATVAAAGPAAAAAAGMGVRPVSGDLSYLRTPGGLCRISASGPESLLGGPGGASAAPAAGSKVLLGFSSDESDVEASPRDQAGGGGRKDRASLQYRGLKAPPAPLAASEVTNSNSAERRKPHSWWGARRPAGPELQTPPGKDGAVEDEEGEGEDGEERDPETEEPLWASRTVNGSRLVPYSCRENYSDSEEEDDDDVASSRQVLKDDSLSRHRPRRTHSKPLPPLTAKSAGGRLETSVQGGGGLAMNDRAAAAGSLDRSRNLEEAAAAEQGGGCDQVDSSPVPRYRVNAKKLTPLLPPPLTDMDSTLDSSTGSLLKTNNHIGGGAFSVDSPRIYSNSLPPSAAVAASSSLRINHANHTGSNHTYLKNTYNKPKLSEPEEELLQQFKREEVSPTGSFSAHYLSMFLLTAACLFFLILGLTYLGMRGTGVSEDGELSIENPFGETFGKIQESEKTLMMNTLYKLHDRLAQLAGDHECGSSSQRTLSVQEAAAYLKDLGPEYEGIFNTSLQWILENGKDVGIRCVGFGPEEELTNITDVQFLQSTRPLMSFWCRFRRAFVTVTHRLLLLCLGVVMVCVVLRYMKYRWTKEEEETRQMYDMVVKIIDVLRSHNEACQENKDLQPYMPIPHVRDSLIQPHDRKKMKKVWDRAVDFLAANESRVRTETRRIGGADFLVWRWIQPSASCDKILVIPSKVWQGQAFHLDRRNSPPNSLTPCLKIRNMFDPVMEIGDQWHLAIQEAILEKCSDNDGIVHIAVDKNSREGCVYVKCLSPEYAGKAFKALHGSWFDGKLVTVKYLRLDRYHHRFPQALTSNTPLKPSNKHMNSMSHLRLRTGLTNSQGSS
UniProt Q14657: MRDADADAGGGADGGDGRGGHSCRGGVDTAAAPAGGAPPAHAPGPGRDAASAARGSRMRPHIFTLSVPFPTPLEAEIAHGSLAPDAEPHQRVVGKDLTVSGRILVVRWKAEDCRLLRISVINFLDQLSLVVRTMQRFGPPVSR
UniProt Q6P1A2: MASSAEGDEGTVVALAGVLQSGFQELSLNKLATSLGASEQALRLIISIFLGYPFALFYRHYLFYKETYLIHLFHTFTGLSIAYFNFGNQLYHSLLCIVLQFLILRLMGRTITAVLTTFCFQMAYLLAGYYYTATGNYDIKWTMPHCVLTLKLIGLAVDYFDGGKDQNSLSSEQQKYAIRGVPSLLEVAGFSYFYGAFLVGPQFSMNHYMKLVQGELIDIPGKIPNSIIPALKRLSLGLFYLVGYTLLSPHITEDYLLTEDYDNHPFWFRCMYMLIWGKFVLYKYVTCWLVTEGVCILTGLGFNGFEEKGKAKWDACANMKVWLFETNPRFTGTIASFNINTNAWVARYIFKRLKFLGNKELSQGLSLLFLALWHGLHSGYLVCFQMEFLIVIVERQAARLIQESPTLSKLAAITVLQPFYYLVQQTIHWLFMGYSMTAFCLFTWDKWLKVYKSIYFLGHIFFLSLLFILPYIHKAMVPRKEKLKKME
UniProt Q8NC56: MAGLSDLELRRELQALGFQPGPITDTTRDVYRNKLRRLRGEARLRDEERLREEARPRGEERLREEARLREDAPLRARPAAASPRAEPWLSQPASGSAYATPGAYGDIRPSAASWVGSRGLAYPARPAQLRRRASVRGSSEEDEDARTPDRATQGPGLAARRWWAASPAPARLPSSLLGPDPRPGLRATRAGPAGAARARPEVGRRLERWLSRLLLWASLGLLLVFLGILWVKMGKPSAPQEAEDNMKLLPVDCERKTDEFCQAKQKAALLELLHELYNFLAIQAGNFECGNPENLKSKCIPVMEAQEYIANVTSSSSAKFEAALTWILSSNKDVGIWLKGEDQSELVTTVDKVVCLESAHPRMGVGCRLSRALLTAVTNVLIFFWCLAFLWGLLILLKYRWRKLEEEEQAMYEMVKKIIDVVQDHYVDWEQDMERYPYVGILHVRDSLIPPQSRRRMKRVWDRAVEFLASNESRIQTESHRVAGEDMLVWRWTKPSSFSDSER
UniProt Q92604: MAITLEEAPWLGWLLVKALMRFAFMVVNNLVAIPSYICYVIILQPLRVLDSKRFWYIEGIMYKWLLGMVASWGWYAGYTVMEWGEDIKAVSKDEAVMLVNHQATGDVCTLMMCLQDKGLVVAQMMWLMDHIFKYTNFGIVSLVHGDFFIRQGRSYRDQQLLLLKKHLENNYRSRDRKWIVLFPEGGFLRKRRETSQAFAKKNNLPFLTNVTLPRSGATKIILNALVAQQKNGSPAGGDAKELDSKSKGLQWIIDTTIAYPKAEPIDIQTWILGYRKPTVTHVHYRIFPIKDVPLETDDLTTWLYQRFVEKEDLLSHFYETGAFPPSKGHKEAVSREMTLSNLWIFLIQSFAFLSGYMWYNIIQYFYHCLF

[2] = compound: C=CC(=O)N1CCC[C@@H](n2nc(-c3ccc(Oc4ccccc4)cc3)c3c(N)ncnc32)C1 [ibrutinib]
Outline: as §1

[3] = compound: CC(=O)c1cnc2ccc(-c3cc(Cl)c(O)c(Cl)c3)nc2c1N[C@H]1CC[C@H](CN(C)C)CC1
Outline: as §1

[4] = compound: CC(C)(C)Cn1c(N)nc2ccc(-c3[nH]c(C(C)(C)C)nc3-c3ccc(F)cc3)nc21 [ralimetinib]
Outline: as §1

[5] = compound: CC(C)(O)CC(=O)NCCn1ccc2ncnc(Nc3ccc(Oc4cccc(C(F)(F)F)c4)c(Cl)c3)c21
Outline: as §1

[6] = compound: CC(C)C1=C2N=C(C=C(N2N=C1)NCC3=CC=CC=C3)NCCCCCCN
Outline: as §1

[7] = compound: CC(C)C[C@@H](C=O)NC(=O)[C@H](CC(C)C)NC(=O)[C@H](CC(C)C)NC(=O)OCc1ccccc1
Outline: as §1

[8] = compound: CC(C)N(C[C@H]1O[C@@H](n2cnc3c(N)ncnc32)[C@H](O)[C@@H]1O)[C@H]1C[C@@H](CCc2nc3cc(C(C)(C)C)ccc3[nH]2)C1 [pinometostat]
Outline: as §1

[9] = compound: CC1=C(C(CC(=O)N1)C2=CC=C(C=C2)C(F)(F)F)C(=O)NC3=C(C=C4C(=C3)C=NN4)F
Outline: as §1

[10] = compound: CC1=C(C2=C(C=C1)C(=O)C3=CC=CC=C3N2CCCN)C
Outline: as §1

Measured: log2 fold change

LAMTOR5 (UniProt O43504)
inactive: [1] 0.013 | [2] 0.005 | [3] -0.172 | [4] -0.055 | [5] -0.09 | [6] -0.177 | [7] -0.119 | [8] -0.026 | [9] 0.04 | [10] 0.159

LONP1 (UniProt P36776)
inactive: [1] 0.017 | [2] -0.006 | [3] -0.005 | [4] -0.043 | [5] 0.009 | [6] 0.04 | [7] -0.143 | [8] -0.036 | [9] 0.003 | [10] 0.039

LAP3 (UniProt P28838)
inactive: [1] 0.005 | [2] 0.013 | [3] 0.007 | [4] -0.058 | [5] -0.01 | [6] 0.019 | [7] -0.023 | [8] -0.068 | [9] 0.006 | [10] 0.01

LEPR (UniProt P48357)
inactive: [1] 0.025 | [2] 0.013 | [3] -0.061 | [4] 0.019 | [5] 0.043 | [6] 0.042 | [7] 0.038 | [8] 0.012 | [9] -0.008 | [10] -0.074

LDHA isoform 3 (UniProt P00338)
inactive: [1] 0.068 | [2] 0.019 | [3] 0.01 | [4] -0.026 | [5] -0.017 | [6] 0.083 | [7] -0.022 | [8] -0.032 | [9] -0.013 | [10] 0.027

LGALS1 (UniProt P09382)
inactive: [1] 0.022 | [2] -0.038 | [3] 0.035 | [4] -0.036 | [5] -0.039 | [6] 0.023 | [7] 0.001 | [8] -0.036 | [9] -0.015 | [10] 0.08

LINS1 (UniProt Q8NG48)
inactive: [1] -0.037 | [2] 0.003 | [3] 0.248 | [4] -0.083 | [5] 0.046 | [6] -0.138 | [7] 0.105 | [8] -0.041

LAMTOR1 (UniProt Q6IAA8)
inactive: [1] 0.016 | [2] 0.066 | [3] -0.206 | [4] 0.116 | [5] 0 | [6] -0.32 | [7] -0.005 | [8] -0.004 | [9] 0.031 | [10] 0.018

LASP1 (UniProt Q14847)
inactive: [1] 0.039 | [2] 0 | [3] 0.005 | [4] -0.068 | [5] 0.005 | [6] 0.072 | [7] -0.04 | [8] -0.062 | [9] 0.024 | [10] -0.026

LRIG2 (UniProt O94898)
inactive: [1] 0 | [2] 0.04 | [3] -0.018 | [4] 0.045 | [5] 0.002 | [6] -0.05 | [7] 0.033 | [8] 0.08 | [9] 0.069 | [10] 0.051

LANCL1 (UniProt O43813)
inactive: [1] 0.038 | [2] 0.05 | [3] -0.002 | [4] -0.027 | [5] -0.034 | [6] 0.072 | [7] -0.008 | [8] -0.019 | [9] 0.111 | [10] 0

LDHB (UniProt P07195)
inactive: [1] 0.075 | [2] 0.025 | [3] 0.013 | [4] -0.025 | [5] 0.052 | [6] 0.102 | [7] 0.031 | [8] -0.037 | [9] 0.011 | [10] 0.006

LACTB (UniProt P83111)
inactive: [1] -0.002 | [2] 0.06 | [3] 0.03 | [4] 0.078 | [5] 0.022 | [6] -0.139 | [7] 0.139 | [8] 0.187 | [9] 0.043 | [10] -0.041

LRRC59 (UniProt Q96AG4)
inactive: [1] 0.001 | [2] -0.03 | [3] 0.025 | [4] -0.007 | [5] 0.028 | [6] 0.014 | [7] -0.006 | [8] -0.049 | [9] -0.002 | [10] 0.079

LAMP2 (UniProt P13473)
inactive: [1] 0.063 | [2] 0.042 | [3] -0.083 | [4] -0.12 | [5] -0.007 | [6] -0.033 | [7] 0.004 | [8] -0.077 | [10] 0.066

LANCL2 (UniProt Q9NS86)
inactive: [1] 0.022 | [2] 0.039 | [3] 0.01 | [4] -0.029 | [5] -0.038 | [6] 0.09 | [7] -0.023 | [8] 0.023 | [9] 0.009 | [10] -0.003

LMAN2 (UniProt Q12907)
inactive: [1] 0.034 | [2] -0.012 | [3] 0.021 | [4] -0.008 | [5] -0.009 | [6] -0.014 | [7] 0.029 | [8] -0.013 | [9] -0.019 | [10] 0.029

LIN7C (UniProt Q9NUP9)
inactive: [1] 0.03 | [2] 0.034 | [3] -0.013 | [4] 0.015 | [5] -0.1 | [6] -0.046 | [7] 0.087 | [8] 0.01 | [9] -0.003 | [10] -0.005

LPIN2 (UniProt Q92539)
inactive: [1] 0.002 | [2] 0.058 | [3] -0.276 | [4] 0.004 | [5] -0.079 | [6] -0.06 | [7] 0.071 | [8] 0.018 | [9] -0.009 | [10] -0.04

LEO1 (UniProt Q8WVC0)
active: [10] -0.394
inactive: [1] 0.134 | [2] 0.026 | [3] -0.027 | [4] -0.031 | [5] -0.044 | [6] -0.016 | [7] 0.068 | [8] 0.019

LRPPRC (UniProt P42704)
inactive: [1] -0.18 | [2] -0.013 | [3] -0.439 | [4] -0.144 | [5] -0.891 | [7] 0.059 | [8] 0 | [10] -0.252
active: [6] -1.09

LMNA (UniProt P02545)
inactive: [1] 0.006 | [2] -0.023 | [3] -0.18 | [4] -0.058 | [5] 0.115 | [6] 0.076 | [7] 0 | [8] -0.057 | [10] -0.017

LARP4B (UniProt Q92615)
inactive: [1] -0.122 | [2] 0.007 | [3] -0.048 | [4] 0.135 | [5] 0.018 | [6] -0.213 | [7] 0.002 | [8] 0.143 | [10] 0.034

LACTB2 (UniProt Q53H82)
inactive: [1] 0.004 | [2] 0.016 | [3] 0.014 | [4] 0.033 | [5] -0.036 | [6] 0.082 | [7] -0.063 | [8] -0.026 | [9] 0.066 | [10] -0.025

LEMD3 (UniProt Q9Y2U8)
inactive: [1] 0.04 | [2] 0.03 | [3] -0.173 | [4] -0.082 | [5] -0.09 | [6] -0.056 | [7] 0.039 | [8] -0.026 | [10] 0.101

LDAH isoform 2 (UniProt Q9H6V9)
inactive: [1] 0.039 | [2] 0.066 | [3] -0.039 | [4] 0.077 | [7] 0.019 | [8] 0 | [10] 0.073
active: [5] 0.464 | [6] -0.286

LAGE3 (UniProt Q14657)
inactive: [1] 0.025 | [2] -0.028 | [3] -0.093 | [4] -0.02 | [5] -0.009 | [6] 0.041 | [7] -0.067 | [8] -0.075 | [9] 0.017 | [10] 0.023

2 entries drawn at random from those above:
LDAH isoform 2 (UniProt Q9H6V9)
inactive: [1] 0.039 | [2] 0.066 | [3] -0.039 | [4] 0.077 | [7] 0.019 | [8] 0 | [10] 0.073
active: [5] 0.464 | [6] -0.286

LARP4B (UniProt Q92615)
inactive: [1] -0.122 | [2] 0.007 | [3] -0.048 | [4] 0.135 | [5] 0.018 | [6] -0.213 | [7] 0.002 | [8] 0.143 | [10] 0.034

Later entries.

KYAT3 (UniProt Q6YP21)
inactive: [1] 0.014 | [2] 0.011 | [3] -0.008 | [4] -0.058 | [5] 0 | [6] 0.051 | [7] -0.018 | [8] -0.025 | [9] 0.006 | [10] 0.017

LPCAT3 (UniProt Q6P1A2)
inactive: [1] 0.014 | [2] -0.034 | [3] 0.099 | [4] 0.009 | [5] 0.148 | [7] -0.004 | [8] 0.083 | [10] 0.03
active: [6] -0.65

LEMD2 (UniProt Q8NC56)
inactive: [1] 0.015 | [2] 0.082 | [3] -0.066 | [4] -0.02 | [5] -0.024 | [7] 0.022 | [8] -0.014 | [10] 0.131
active: [6] -0.63

LPGAT1 (UniProt Q92604)
inactive: [1] -0.115 | [2] -0.05 | [3] 0.064 | [4] 0.041 | [5] -0.066 | [6] -0.277 | [7] -0.057 | [8] 0.013 | [10] 0.069
